# About 45 (3%) of roughly 1,400 compounds were called active.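 The calls were made as follows: active = half-maximal dose of signal decrease from fit no higher than ten times the top valid tested dose; inconclusive = fit invalid, or curve flat with 30 to 70% inhibition; inactive = the rest.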 This is one part of the list. Measured potencies and affinities stand elsewhere.
# Amino acid sequences for entries named in this document (tags omitted). A change or cut given only in a name is not applied to a line headed by its entry.
# UniProt O75164: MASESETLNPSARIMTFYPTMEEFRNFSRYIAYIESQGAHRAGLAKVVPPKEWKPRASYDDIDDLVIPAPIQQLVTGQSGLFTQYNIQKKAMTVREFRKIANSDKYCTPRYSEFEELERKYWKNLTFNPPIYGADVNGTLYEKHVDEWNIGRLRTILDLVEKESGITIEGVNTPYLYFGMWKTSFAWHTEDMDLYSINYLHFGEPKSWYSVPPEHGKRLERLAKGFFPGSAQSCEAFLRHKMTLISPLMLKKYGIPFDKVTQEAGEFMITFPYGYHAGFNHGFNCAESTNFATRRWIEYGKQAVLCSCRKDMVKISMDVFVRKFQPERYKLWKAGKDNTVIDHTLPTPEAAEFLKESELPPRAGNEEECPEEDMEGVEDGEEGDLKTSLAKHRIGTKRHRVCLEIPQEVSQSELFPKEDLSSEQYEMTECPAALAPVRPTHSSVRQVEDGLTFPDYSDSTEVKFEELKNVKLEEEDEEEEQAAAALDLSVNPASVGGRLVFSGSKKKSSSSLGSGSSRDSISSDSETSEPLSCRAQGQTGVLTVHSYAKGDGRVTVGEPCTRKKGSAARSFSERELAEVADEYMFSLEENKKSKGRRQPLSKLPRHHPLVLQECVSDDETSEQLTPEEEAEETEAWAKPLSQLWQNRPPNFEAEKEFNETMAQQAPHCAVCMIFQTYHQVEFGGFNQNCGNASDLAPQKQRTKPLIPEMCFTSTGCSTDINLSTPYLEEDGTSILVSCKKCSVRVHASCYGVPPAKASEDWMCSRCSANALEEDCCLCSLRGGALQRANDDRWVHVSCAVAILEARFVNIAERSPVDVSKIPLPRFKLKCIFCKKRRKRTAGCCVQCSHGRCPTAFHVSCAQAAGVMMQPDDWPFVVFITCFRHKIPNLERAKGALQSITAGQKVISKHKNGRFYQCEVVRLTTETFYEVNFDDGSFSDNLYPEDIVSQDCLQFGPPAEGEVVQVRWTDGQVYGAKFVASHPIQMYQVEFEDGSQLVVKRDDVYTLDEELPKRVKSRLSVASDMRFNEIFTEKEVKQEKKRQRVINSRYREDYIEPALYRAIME
# Biological target: Lysine-specific demethylase 4A (Homo sapiens) (UniProt O75164)
# Assay: JMJD2A histone demethylase inhibitors, dose response, selectivity assay for GASC-1 inhibitor project, biochemical, DELFIA europium, cherry-picked samples (AID 488840);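 also: europium signal reports the dimethyl H3K9 product detected by antibody so inhibitors lower it; 0% = median of neutral control wells and -100% = median of positive control wells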
# Conditions: GST-JMJD2A(1-420) H3K9me3 demethylation; at 6 µM (top of the series)
row,Structure (SMILES),"activity change, negative = inhibition"
1,CN1CCN(c2ccc(C=O)cc2)CC1,inactive: 0.323%
2,O=C1NC(=O)N(Cc2ccc(F)cc2)C(=O)/C1=C\C=C\c1ccco1,inactive: 8.19%
3,CCOC(=O)C1=CC(=C2C(=O)N(CC)C(=S)N(CC)C2=O)c2ccccc2O1,inactive: -8.54%
4,C=CCC1C(=O)NC(=S)NC1=O,inactive: 1%
5,Cc1cccc(N2C(=O)NC(=O)/C(=C/c3ccc(N4CCOCC4)cc3)C2=O)c1,inactive: 3.22%
6,CN1C(=O)C(=Cc2ccc(N3CCCCCC3)cc2)C(=O)N(C)C1=O,inactive: -1.93%
7,CC1(C)CC(=O)C(C2(O)C(=O)NC(=O)NC2=O)=C(O)C1,inactive: -0.902%
8,CCN(CC)c1ccc(/C=C2\C(=O)NC(=O)N(CC3CCCO3)C2=O)cc1 (centres undefined),inactive: 4.96%
9,CN(C)c1ccc(/C=C2\C(=O)NC(=O)N(CCc3ccc(F)cc3)C2=O)cc1,inactive: 4.14%
10,O=C1NC(=O)C(C(CC(=O)c2ccccc2)c2ccccc2)C(=O)N1 (centres undefined),inactive: 4.56%
11,C[C@@H]1CCC2[C@@H](C)C(=O)O[C@@H]3OC4(C)CCC1[C@@]23OO4 (some centres undefined),inactive: -13.7%
12,Cc1ccc2[nH]c(=S)n(-c3cccnc3)c(=O)c2c1,inactive: 0.86%
13,CN1C(=O)N(C)C(=O)C2(Cc3ccccc3N3CCCC32)C1=O (centres undefined),inactive: -3.83%
14,N/C(=N\[N+](=O)[O-])N1CCN(C(=O)c2ccccc2)CC1,inactive: 4.96%
15,Cc1cc(C)cc(OCCOc2cccc(C=C3C(=O)NC(=O)NC3=O)c2)c1,inactive: -11.9%
16,Cc1[nH]c2ccc(OC(F)(F)F)cc2c1CCNCc1cccc([N+](=O)[O-])c1,inactive: 0.553%
17,CC(=NCc1ccc(F)cc1)c1c(O)n(C)c(=O)n(C)c1=O,inactive: 1.79%
18,CCN1C(=O)C(=C/C=C/c2ccco2)C(=O)N(CC)C1=S,inactive: 19.8%
19,COCc1cc(OC(=O)N(C)C)nc2c1c(C)nn2C,inactive: 1.08%
20,O=C(c1cccs1)N1C2CCC1CC(O)(c1cccnc1)C2 (centres undefined),inactive: 5.89%

row,Structure (SMILES),"activity change, negative = inhibition"
1,N#CC(C#N)=Cc1ccc(O)c(O)c1,inactive: 1.99%
2,CN(C)[C@@H]1C(=O)C(C(N)=O)=C(O)[C@@]2(O)C(=O)C3=C(O)c4c(O)cccc4[C@@](C)(O)C3C[C@@H]12 (some centres undefined),inactive: 1.81%
3,C=CCn1c(C)c(C=C2C(=O)NC(=O)NC2=O)c2ccccc21,inactive: 14.1%
4,COc1cccc(N2C(=O)NC(=O)/C(=C/c3ccc4c(c3)Cc3ccccc3-4)C2=O)c1,inactive: 6.38%
5,CCCCCSc1cc(O)c(C(CNC)C(C)C)cc1OC (centres undefined),inactive: 0.378%
6,Cc1sc2c(c1C)C(c1ccc(C(C)(C)C)cc1)=NCC(=O)N2CC(=O)Nc1nccs1,inactive: 0.283%
7,CC(C)(C)[C@]1(O)C[C@@H]2OC(=O)C[C@@]23C(=O)O[C@@H]2OC(=O)[C@@H](O)C213 (some centres undefined),inactive: -4.62%
8,Cc1ccc2nc3c(cc2c1)CC1(C(=O)N(C)C(=O)N(C)C1=O)C1CCCCN31 (centres undefined),inactive: 2.53%
9,CN1CCN(c2nc3ccccn3c(=O)c2C=C2C(=O)N(C)C(=O)N(C)C2=O)CC1,inactive: -1.42%
10,COc1cc(Br)cc(CN2CCN(C)CC2)c1O,inactive: -2.5%
11,O=C1NC(=O)C(=Cc2csc3ccccc23)C(=O)N1,inactive: 2.89%
12,C=CCN1C(=O)NC(=O)/C(=C/c2ccoc2)C1=O,inactive: 9.57%
13,CCN1CCN(c2ccc([N+](=O)[O-])cc2C=C2C(=O)NC(=O)NC2=O)CC1,inactive: 1.98%
14,COC(=O)C1=C(c2ccc(OCc3ccccc3)cc2)C[C@@H]2CC[C@H]1N2C(=O)NCc1ccc([N+](=O)[O-])cc1,inactive: -2.61%
15,C=CCN1C(=O)NC(=O)/C(=C/c2ccc(OC)c(CSc3ccccn3)c2)C1=O,inactive: 1.34%
16,O=C1NC(=S)N(C2CC2)C(=O)/C1=C/c1ccc2c(c1)CCN2CCCCl,inactive: 0.27%
17,O=C1NC(=S)NC(=O)C1C1CCCCC1,inactive: 3.01%
18,CN1C(=O)C(Cc2ccc(OCc3ccccc3)cc2)C(=O)N(C)C1=O,inactive: -5.87%
19,NCC(O)c1cc(O)c(O)cc1F (centres undefined),inactive: 5.7%
20,O=P(OCC(F)(F)C(F)F)(N1CCCCC1)N1CCCCC1,inactive: -1.29%

row,Structure (SMILES),"activity change, negative = inhibition"
1,O=C1NC(=O)C(=Cc2ccc(Sc3ccccc3)o2)C(=O)N1,inactive: -4.29%
2,Cc1cccc(N2C(=O)NC(=O)/C(=C/c3ccc([N+](=O)[O-])o3)C2=O)c1,inactive: 7.26%
3,CCN1C(=O)NC(=O)/C(=C\c2cn(CC(=O)N3CCCCC3)c3ccccc23)C1=O,inactive: 3.34%
4,COc1ccc(/C=C2/C(=O)NC(=O)N(C3CCCCC3)C2=O)cc1CSc1ccccn1,inactive: -14.3%
5,COc1ccc(CC2C(=O)NC(=O)N(c3ccccc3)C2=O)c(OC)c1 (centres undefined),inactive: 9.22%
6,COc1cc(CC2C(=O)N(C)C(=O)N(C)C2=O)ccc1OCc1ccccc1,inactive: 11.6%
7,CN(C)c1ccc(/C=C2/C(=O)NC(=O)N(Cc3ccco3)C2=O)cc1,inactive: -1.48%
8,CCc1ccc(N2C(=O)NC(=O)/C(=C\c3cc(C)n(-c4cc(C(=O)O)cc(C(=O)O)c4)c3C)C2=O)cc1,inactive: 5.07%
9,Cc1cccc(N2C(=O)NC(=O)/C(=C\c3cnc(-c4ccccc4)nc3)C2=O)c1,inactive: 7.61%
10,CCC(=NCC1CCCO1)c1c(O)[nH]c(=O)[nH]c1=O (centres undefined),inactive: 2.64%
11,CCOc1cc(C=C2C(=O)NC(=O)NC2=O)cc([N+](=O)[O-])c1O,inactive: 3.75%
12,CC1(C)OC(c2ccccc2)=C/C(=C/C=C2C(=O)NC(=S)NC2=O)O1,inactive: -2.37%
13,C=CCn1c(O)c(/C(C)=N/NC(=S)Nc2ccccc2)c(=O)[nH]c1=O,inactive: -2.23%
14,Cc1cc(C=C2C(=O)NC(=S)NC2=O)c(C)n1-c1ccc2c(c1)OCO2,inactive: 3.41%
15,O=C1NC(=O)N(Cc2ccccc2)C(=O)/C1=C/C=C/c1ccco1,inactive: 0.259%
16,CC1C(c2cccs2)=[N+]([O-])C(C)(C(=O)c2ccc(Cl)cc2)N1O (centres undefined),inactive: 6.33%
17,COc1ccc(N2C(=O)NC(=O)/C(=C/c3cccc(OC(=O)c4cccs4)c3)C2=O)cc1Cl,inactive: 0.914%
18,CCOC(=O)/C(=N\Nc1ccccc1)N1CC1,inactive: -4.77%
19,c1ccc2c3c(ccc2c1)OCC1CONC31 (centres undefined),inactive: -3.27%

# Compounds shown so far that have a carbonyl joined to an NH by a bond outside any ring:
row,Structure (SMILES),"activity change, negative = inhibition"
2,CN(C)[C@@H]1C(=O)C(C(N)=O)=C(O)[C@@]2(O)C(=O)C3=C(O)c4c(O)cccc4[C@@](C)(O)C3C[C@@H]12 (some centres undefined),inactive: 1.81%
6,Cc1sc2c(c1C)C(c1ccc(C(C)(C)C)cc1)=NCC(=O)N2CC(=O)Nc1nccs1,inactive: 0.283%
14,COC(=O)C1=C(c2ccc(OCc3ccccc3)cc2)C[C@@H]2CC[C@H]1N2C(=O)NCc1ccc([N+](=O)[O-])cc1,inactive: -2.61%
